Test results as given in PubChem BioAssay AID540275 (National Center for Advancing Translational Sciences (NCATS), 2011).
Among all 320,000 compounds or so, about 620 (0.19%) were called active. Inconclusive results, whose numbers are uncertain, are shown with a selection of clear calls. No stated cut-off is given here; in the data, active means activation above about 80%; inconclusive means between about 30% and that limit; inactive means weaker than that.

Protein sequences, listed by entry. Tags and fused reporters are not part of them.
UniProt Q8NER1, whole entry, looked up: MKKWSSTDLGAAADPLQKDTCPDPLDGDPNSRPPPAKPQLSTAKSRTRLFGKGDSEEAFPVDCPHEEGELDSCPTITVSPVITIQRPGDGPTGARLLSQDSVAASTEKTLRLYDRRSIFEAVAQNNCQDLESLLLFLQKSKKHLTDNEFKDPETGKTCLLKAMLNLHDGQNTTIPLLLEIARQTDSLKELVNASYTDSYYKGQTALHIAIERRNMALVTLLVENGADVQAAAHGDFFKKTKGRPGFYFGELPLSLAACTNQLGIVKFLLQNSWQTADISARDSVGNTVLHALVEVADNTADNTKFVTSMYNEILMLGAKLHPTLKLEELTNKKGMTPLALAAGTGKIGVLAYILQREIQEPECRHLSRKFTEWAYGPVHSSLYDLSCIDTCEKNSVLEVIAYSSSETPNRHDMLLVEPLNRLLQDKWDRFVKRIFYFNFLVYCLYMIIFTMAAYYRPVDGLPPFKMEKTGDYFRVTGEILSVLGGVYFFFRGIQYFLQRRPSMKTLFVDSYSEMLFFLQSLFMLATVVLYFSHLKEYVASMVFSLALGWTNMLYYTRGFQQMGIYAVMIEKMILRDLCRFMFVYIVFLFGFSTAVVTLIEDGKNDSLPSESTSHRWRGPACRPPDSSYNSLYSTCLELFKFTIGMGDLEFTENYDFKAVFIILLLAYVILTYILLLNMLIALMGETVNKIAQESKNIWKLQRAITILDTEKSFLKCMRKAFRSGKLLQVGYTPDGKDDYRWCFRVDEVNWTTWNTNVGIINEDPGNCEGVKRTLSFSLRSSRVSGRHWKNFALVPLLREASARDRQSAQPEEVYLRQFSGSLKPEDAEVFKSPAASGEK

target: Transient receptor potential cation channel subfamily V member 1 (Homo sapiens) (UniProt Q8NER1); experiment: HTS Assay for Compounds that Act as Agonists of the Vanilloid Receptor 1; settings: TRPV1-expressing cells, Fluo-8 calcium influx, agonist mode; at 8.33 µM, stronger effect = higher value; further: 0% is about no effect
Outline: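 TRPV1-expressing cells were cultured overnight at 35.5C and loaded with Fluo-8 calcium dye for 40 to 90 min at room temperature. After a 10 s baseline, compound was added and calcium influx was read kinetically for 3 min (ex 480/em 520 nm).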

Compound | activation
Cc1cccc(C)c1OCCn1c(CCNC(=O)C2CCCCC2)nc2ccccc21 | inconclusive: 50.2%
Cc1ccc(NC(=O)c2ccc(Cn3cc(Br)cn3)o2)cc1 | inconclusive: 69.5%
CCOC(=O)CN(C(=O)CSc1nnc(-c2cccc(OC)c2)o1)c1ccc(F)cc1 | inactive: -0.321%
Cc1nn(-c2ccccn2)c2c1C(c1c(F)cccc1Cl)C1=C(N2)c2ccccc2C1=O (stereo not drawn) | inactive: 16.6%
O=C(c1ccc2c(c1)OCO2)N1CCCC1 | inactive: -3.34%
COc1ccc(C(=O)C2CCCN(Cc3cccn3-c3nccs3)C2)cc1F (stereo not drawn) | inactive: 2.49%
CC(C)(C)c1cc(CSC(=S)NC2CCS(=O)(=O)C2)c(Br)c(C(C)(C)C)c1 (stereo not drawn) | inconclusive: 49.2%
COc1ccccc1CNS(=O)(=O)c1ccc2c(c1)N(C(C)=O)CC(C)S2 (stereo not drawn) | inconclusive: 37.9%
CC(/C=N/n1c(-c2ccccn2)n[nH]c1=S)=C\c1ccccc1 | inactive: 4.2%
O=C(Nc1ccccc1)NC1CCCc2ccccc21 (stereo not drawn) | inconclusive: 47.8%
CC(C)Cc1nnc(NC(=O)c2ccc3c(c2)OCCO3)s1 | inconclusive: 60.3%
CC(C)Oc1cccc(C(=O)C2CCCN(C(=O)c3noc4c3CCCC4)C2)c1 (stereo not drawn) | inconclusive: 43%
Cc1ccc(N2CCN(C(=O)N3CCOCC3)CC2)c(C)c1 | active: 83.2%
CCN(CC)c1ccc(/C=C(\C#N)c2ccccn2)cc1 | inconclusive: 55.2%
Cc1cccc(NC(=O)c2cc3ccccc3nc2C)c1 | inconclusive: 46.7%
CN(Cc1nc2ccccc2c(=O)[nH]1)Cc1nc2ccsc2c(=O)[nH]1 | inactive: 2.88%
CN(C)CCCSc1ccccc1NC(=O)/C=C/c1ccccc1 | inconclusive: 57.5%
CCCn1nc(NC(=O)COC)c2cc3cccc(C)c3nc21 | inconclusive: 49.3%
O=C(Nc1nc(-c2ccc3c(c2)OCO3)cs1)c1ccncc1 | inconclusive: 58.5%
CCN(CC)c1ccc(/C=N/NC(=O)c2ccoc2C)cc1 | inconclusive: 49%

Compound | activation
Cc1ccc(F)c(NC(=O)c2ccc(Cn3cc(Cl)cn3)cc2)c1 | inconclusive: 51.2%
Cc1cccc(NC(=O)C(Cc2ccccc2)n2cccc2)c1 (stereo not drawn) | inconclusive: 46.1%
OC1(CC#CCN2CCCCC2)c2ccccc2-c2ccccc21 | inactive: 0.477%
CC(OC(=O)C1=COCCO1)C(=O)c1ccc(C(C)(C)C)cc1 (stereo not drawn) | inconclusive: 42%
COc1ccc(NS(=O)(=O)c2cccc(NC(=O)c3cnccn3)c2)cc1Br | inactive: 4.65%
COc1cccc(CNC(=O)c2cc3c(C)nc4ccccc4c3o2)c1 | inconclusive: 56.3%
O=C(N/N=C/c1ccncc1)c1cc2ccccc2o1 | inconclusive: 55.2%
COc1ccc(NC(=O)C2C3CCC4C(CCC32)C4(Cl)Cl)cc1 (stereo not drawn) | inconclusive: 30.6%
COc1ccc(C2CC(c3cccs3)=NN2C(=O)c2ccc(Br)o2)cc1 (stereo not drawn) | inconclusive: 58.2%
O=S(=O)(Cc1cc(Sc2ccccc2)nc(-c2ccccc2)n1)c1ccccc1 | inconclusive: 47.6%
CSc1ccc(/C=N/n2c(C)nc3ccccc3c2=O)cc1 | inconclusive: 61.1%
COCCn1c(-c2ccc(Br)cc2)nc2oc3cc(OC)ccc3c(=O)c2c1=O | inactive: 5.84%
CC(C)CC(=O)Nc1ccccc1N1CCN(c2ccc(F)cc2)CC1 | inconclusive: 33.2%
Cn1cnnc1SCc1ccc(C(=O)N=Nc2c(O)n(Cc3ccc(Cl)cc3)c3ccccc23)cc1 | inactive: -0.963%
CC(C)(C)c1nc(N2CCN(C(=O)c3ccco3)CC2)c2nnn(Cc3ccccc3)c2n1 | inconclusive: 34.4%
O=C(NCCCN1CCN(c2ccccc2F)CC1)Nc1ccc(F)cc1 | inconclusive: 30.9%
Cc1ccc(S(=O)(=O)N2CCOCC2)cc1NC(=O)COC(=O)Cc1cccs1 | inactive: -2.98%
CCCCOc1ccc(C(=O)Oc2cccnc2)cc1 | inconclusive: 31.7%
CC1(C)O[C@@H]2[C@H](O1)[C@@H](COS(=O)(=O)O)O[C@H]2n1cnc2c(N)ncnc21 | inactive: -2.63%
O=C(Nc1nc(-c2ccc(F)cc2)cs1)c1cnccn1 | inactive: 1.82%

Molecules from the list above that have a tert-butyl group:
Compound | activation
CC(C)(C)c1cc(CSC(=S)NC2CCS(=O)(=O)C2)c(Br)c(C(C)(C)C)c1 (stereo not drawn) | inconclusive: 49.2%
CC(OC(=O)C1=COCCO1)C(=O)c1ccc(C(C)(C)C)cc1 (stereo not drawn) | inconclusive: 42%
CC(C)(C)c1nc(N2CCN(C(=O)c3ccco3)CC2)c2nnn(Cc3ccccc3)c2n1 | inconclusive: 34.4%

(further entries)

Compound | activation
CC(C)(C)n1nnnc1C(c1cccs1)N(Cc1cccnc1)Cc1ccccc1Cl (stereo not drawn) | inconclusive: 60.1%
Cc1ccc(-c2cc(C(=O)NCc3cnn(C)c3C)c3cc(Br)ccc3n2)cc1 | inconclusive: 58.9%
Cc1ccc(NC(=O)c2cc(C(C)(C)C)nn2Cc2ccccc2)cc1 | inconclusive: 76.6%
CC(=O)Nc1sc(/C(C#N)=C\c2cccc(Cl)c2)nc1-c1ccc(C)cc1 | inconclusive: 33.1%
Cc1ccc(C(=O)n2c(N)nc3ccccc32)cc1 | inconclusive: 31.9%
CC1CCN(C(=O)Cn2nnc(-c3ccccc3)n2)CC1 | inconclusive: 45.1%
OC(CNC1CCCC1)COc1ccccc1Br (stereo not drawn) | inactive: 2.57%
COc1ccc(S(=O)(=O)N2CCN(c3ccccc3F)CC2)cc1-c1noc(C)n1 | inactive: 1.1%
Cc1c(C(=O)NCCC2=CCCCC2)sc2ncnc(N3CCCCC3C)c12 (stereo not drawn) | inconclusive: 42.3%
Cc1ccc(C)c(OCCC(=O)N2CCN(S(=O)(=O)c3ccc([N+](=O)[O-])cc3)CC2)c1 | inconclusive: 38.3%
c1ccc2c(N3CCOCC3)nc(N3CCOCC3)nc2c1 | inactive: 2.27%
CCOC(=O)C(C)Sc1ccc2nnc(-c3ccc(F)cc3)n2n1 (stereo not drawn) | inconclusive: 50.8%
CC(=O)c1ccc(Sc2ccccc2)cc1 | inconclusive: 30.7%
O=C(Nc1ccccc1N1CCCC1)c1ccccc1F | inconclusive: 31.9%
O=C(N/N=C/c1ccc(OC(=O)c2ccccc2)c([N+](=O)[O-])c1)c1ccc(O)cc1 | inconclusive: 36.9%
COc1cc(/C=C2\SC(N3CCCCC3)=NC2=O)cc(OC)c1OC | inconclusive: 51.5%
O=C(c1cc(-c2ccc(Cl)cc2Cl)on1)N1CCOCC1 | active: 83.4%
CCN(CC)c1ccc(NC(=O)c2ccco2)c(C)c1 | inconclusive: 40.8%
